From US20200369755A1
These are yes or no findings as the source states them, for the method shown. Some results given as binding are weak or reduced against the parent protein; the word gives no strength.

Amino acid sequences for entries named in this document (tags omitted). A change or cut given only in a name is not applied to a line headed by its entry. Chains listed by the source or under a name are the forms on record and can include a tag or linker.
4R tau fibrils (P10636, form named): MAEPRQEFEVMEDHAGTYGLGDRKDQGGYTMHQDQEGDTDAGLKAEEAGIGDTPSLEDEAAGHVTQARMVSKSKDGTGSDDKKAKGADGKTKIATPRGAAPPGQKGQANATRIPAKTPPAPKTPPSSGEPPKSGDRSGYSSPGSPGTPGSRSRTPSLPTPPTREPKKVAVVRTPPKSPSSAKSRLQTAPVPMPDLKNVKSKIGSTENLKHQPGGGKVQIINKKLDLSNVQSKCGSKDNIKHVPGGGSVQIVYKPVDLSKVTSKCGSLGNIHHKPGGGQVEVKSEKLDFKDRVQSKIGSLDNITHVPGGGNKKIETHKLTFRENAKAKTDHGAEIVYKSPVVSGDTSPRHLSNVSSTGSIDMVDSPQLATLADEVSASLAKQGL

Experiments:
4R tau fibrils [1] = target: 4R tau fibrils (UniProt P10636); experiment: ELISA on plate-coated preformed fibrils
[2] = target: mixed fibrils of 3-repeat and 4-repeat tau (UniProt P10636); experiment: ELISA on plate-coated preformed fibrils
4R tau fibrils [3] = target: 4R tau fibrils (UniProt P10636); experiment: ELISA on fibrils
[4] = target: mixed fibrils of 3-repeat and 4-repeat tau (UniProt P10636); experiment: ELISA on fibrils
[5] = target: mixed fibrils of 3-repeat and 4-repeat tau (UniProt P10636); experiment: ELISA on plates coated with preformed mixed 3R/4R tau fibrils, biotinylated antibody, streptavidin-HRP, OPD, A490 [binding to mixed fibrils]

Measured: binding

B1: hu3D6VHv1bA11/L2-DIM4 (antibody, V domains shown)
VH: EVQLVQSGAEVVKPGATVKISCKASGFNIKDYYLHWVRQRPGQGLEWIGWIDPENGDTVYDPKFQGRATITADTSTDTAYLQLGSLTSEDTAVYFCSTLDFWGQGTLVTVSS
VL: DVVMTQSPLSLPVTLGQPASISCKSSQSLLDSDGKTYLNWLQQRPGQSPRRLIYLVGKRDSGVPDRFSGSGSGTDFTLKISRVEAEDVGVYYCWQGTHFPYTFGGGTKLEIK
binds: all assays above
